This passage reports binding results from paper doi:10.1101/2024.12.23.630205 (bioRxiv, 2024).

In the assay the target is T1, His-SIRT2 (hSIRT2 36-356 aa) (human) (UniProt Q8IXJ6).
T1 sequence: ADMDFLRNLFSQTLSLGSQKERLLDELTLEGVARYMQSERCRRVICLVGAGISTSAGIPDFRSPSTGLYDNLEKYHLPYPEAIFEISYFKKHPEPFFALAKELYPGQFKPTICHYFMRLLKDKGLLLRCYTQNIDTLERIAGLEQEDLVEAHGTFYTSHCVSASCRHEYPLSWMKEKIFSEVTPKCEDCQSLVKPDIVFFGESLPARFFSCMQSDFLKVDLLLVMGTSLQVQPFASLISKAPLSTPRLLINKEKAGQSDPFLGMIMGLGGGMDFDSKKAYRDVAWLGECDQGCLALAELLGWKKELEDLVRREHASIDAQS
Put plainly: pull-down.

Results are given in words; binding and its absence hold for the method and conditions named. In cells and extracts the contact can be indirect. Some results given as binding are weak or reduced against the parent protein; the word gives no strength. Tags and fused reporters may be left off the sequences shown.

B1: GST-TULP3 (60-442 aa, construct-2) (domain or fragment, human, UniProt O75386 60-442, looked up)
chain: AKPRASDEQTPLVNCHTPHSNVILHGIDGPAAVLKPDEVHAPSVSSSVVEEDAENTVDTASKPGLQERLQKHDISESVNFDEETDGISQSACLERPNSASSQNSTDTGTSGSATAAQPADNLLGDIDDLEDFVYSPAPQGVTVRCRIIRDKRGMDRGLFPTYYMYLEKEENQKIFLLAARKRKKSKTANYLISIDPVDLSREGESYVGKLRSNLMGTKFTVYDRGICPMKGRGLVGAAHTRQELAAISYETNVLGFKGPRKMSVIIPGMTLNHKQIPYQPQNNHDSLLSRWQNRTMENLVELHNKAPVWNSDTQSYVLNFRGRVTQASVKNFQIVHKNDPDYIVMQFGRVADDVFTLDYNYPLCAVQAFGIGLSSFDSKLACE
For the molecule B1, the binding entry is “binds”.
